Patent US20170368132A1 (published 2017)
No constants are given. Whether binding was seen depends on the method and setting. Some results given as binding are weak or reduced against the parent protein; the word gives no strength.

Tests used:
[1] = target: S. cerevisiae Rad51 (1-226) + H. sapiens Rad51 (168-339) (S. cerevisiae; H. sapiens) (UniProt P25454); test: yeast two-hybrid, RAD51 hybrid construct
[2] = target: S. cerevisiae Rad51 (1-250) + H. sapiens Rad51 (190-339) (S. cerevisiae; H. sapiens) (UniProt P25454); test: yeast two-hybrid, RAD51 hybrid construct

KRRRRRRRKRLGVRLRVSRML [compound 5 peptide sequence (SEQ ID NO.:5)]
binding [1]: binds | binding [2]: binds
